Numbering of substitutions follows the chain as printed. Names may count otherwise. No constants are given. Whether binding was seen depends on the method and setting. Some results given as binding are weak or reduced against the parent protein; the word gives no strength. Sequences can lack the tags named with a protein. One block for each molecule: values may come before it.
Columns and labels:
[1] = molecular target: T1, GST-GFP-Haus8^1–150 (X. laevis) (UniProt Q0IHJ3); test: TIRF microscopy of binding to immobilised microtubules; as a5, 100 nM GFP-labeled Haus8 or augmin incubated on ice for 10 min with a 10-fold molar excess of importins (and Ran^Q69L) before the flow chamber; both purified
T1 sequence: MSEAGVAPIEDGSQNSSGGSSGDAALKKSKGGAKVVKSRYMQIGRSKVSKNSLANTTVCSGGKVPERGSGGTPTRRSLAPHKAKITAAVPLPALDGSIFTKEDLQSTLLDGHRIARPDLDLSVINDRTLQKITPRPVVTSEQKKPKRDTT

Chains of the proteins cited; added tags and fusions are not shown.
UniProt P52297: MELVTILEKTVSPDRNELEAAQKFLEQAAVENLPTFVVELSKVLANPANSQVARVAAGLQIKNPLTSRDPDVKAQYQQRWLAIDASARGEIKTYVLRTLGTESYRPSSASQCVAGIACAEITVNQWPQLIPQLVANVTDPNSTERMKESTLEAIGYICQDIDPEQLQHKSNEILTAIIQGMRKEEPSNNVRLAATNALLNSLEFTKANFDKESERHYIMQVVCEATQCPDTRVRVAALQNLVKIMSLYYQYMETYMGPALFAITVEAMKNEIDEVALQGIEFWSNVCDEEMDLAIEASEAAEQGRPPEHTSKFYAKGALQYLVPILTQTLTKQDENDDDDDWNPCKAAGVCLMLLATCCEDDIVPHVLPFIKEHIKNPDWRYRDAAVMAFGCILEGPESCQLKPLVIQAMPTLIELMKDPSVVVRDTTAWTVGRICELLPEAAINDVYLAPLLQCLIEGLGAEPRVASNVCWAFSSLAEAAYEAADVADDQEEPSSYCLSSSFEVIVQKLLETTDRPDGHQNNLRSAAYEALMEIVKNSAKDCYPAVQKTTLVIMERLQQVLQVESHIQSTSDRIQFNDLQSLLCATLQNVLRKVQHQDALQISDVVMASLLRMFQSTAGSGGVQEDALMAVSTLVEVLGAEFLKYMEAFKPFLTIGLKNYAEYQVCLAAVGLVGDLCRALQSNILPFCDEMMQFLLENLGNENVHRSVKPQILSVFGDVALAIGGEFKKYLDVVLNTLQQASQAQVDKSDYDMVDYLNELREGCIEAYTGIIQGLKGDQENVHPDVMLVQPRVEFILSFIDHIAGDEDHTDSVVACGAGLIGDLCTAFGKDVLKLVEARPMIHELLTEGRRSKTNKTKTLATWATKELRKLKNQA

[2] = molecular target: GST-importin-β (X. laevis) (UniProt P52297); test: pull-down; 2 μM GST-importin on magnetic glutathione agarose; 2 μM GFP-Haus8 (1–150) or 200 nM augmin complex; low-salt CSFxB with 0.1% Tween-20, 4 °C, 2 h; Western blot with α-Strep or α-Haus1; both purified

Molecule: GST-importin-β (from UniProt P52297 1-876)
binding [1]: binds

B3: Strep-GFP-Haus8^1–150 with mutations to both NLS sites (K27A/K28A and K143A/K144A) (domain or fragment, UniProt Q0IHJ3 1-150)
chain: T1 sequence with K27A, K28A, K143A, K144A
binding [2]: binds

The next lines start with the values.

binding [2]: binds
B1: Strep-GFP-Haus8^1–150 ΔNLS1 (K27A/K28A) (domain or fragment, UniProt Q0IHJ3 1-150)
chain: T1 sequence with K27A, K28A

binding [2]: binds
B2: Strep-GFP-Haus8^1–150 (domain or fragment, UniProt Q0IHJ3 1-150)
chain: T1 sequence

binding [2]: binds
B4: Strep-GFP-Haus8^1–150 ΔNLS2 (K143A/K144A) (domain or fragment, UniProt Q0IHJ3 1-150)
chain: T1 sequence with K143A, K144A

From PMC10318467
